# Results: the supplement of paper PMC12067093, “Discovery and optimisation of a covalent ligand for TRIM25 and its application to targeted protein ubiquitination” (Chemical Science, 2025)
# Chains of the proteins cited; added tags and fusions are not shown. Lines headed by an entry give the natural chain unless they say otherwise; changes in a name come on top.
# UniProt Q9NVP1: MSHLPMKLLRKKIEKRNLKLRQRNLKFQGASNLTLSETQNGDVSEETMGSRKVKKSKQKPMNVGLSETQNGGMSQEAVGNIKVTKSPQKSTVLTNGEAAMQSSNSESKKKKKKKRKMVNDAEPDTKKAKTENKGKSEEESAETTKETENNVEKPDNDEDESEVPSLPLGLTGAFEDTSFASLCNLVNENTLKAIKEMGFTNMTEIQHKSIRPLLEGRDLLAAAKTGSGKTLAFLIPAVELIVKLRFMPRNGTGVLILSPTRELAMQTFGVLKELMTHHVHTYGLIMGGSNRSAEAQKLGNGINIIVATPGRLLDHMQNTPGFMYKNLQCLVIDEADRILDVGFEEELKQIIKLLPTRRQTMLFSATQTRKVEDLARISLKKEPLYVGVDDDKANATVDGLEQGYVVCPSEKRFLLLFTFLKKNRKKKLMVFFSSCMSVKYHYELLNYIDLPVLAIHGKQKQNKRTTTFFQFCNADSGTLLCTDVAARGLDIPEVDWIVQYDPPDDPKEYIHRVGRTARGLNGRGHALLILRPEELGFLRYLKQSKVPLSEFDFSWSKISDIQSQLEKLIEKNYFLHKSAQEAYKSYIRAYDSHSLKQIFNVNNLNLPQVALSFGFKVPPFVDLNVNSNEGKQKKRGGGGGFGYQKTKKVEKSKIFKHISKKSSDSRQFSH
# UniProt Q9NY93: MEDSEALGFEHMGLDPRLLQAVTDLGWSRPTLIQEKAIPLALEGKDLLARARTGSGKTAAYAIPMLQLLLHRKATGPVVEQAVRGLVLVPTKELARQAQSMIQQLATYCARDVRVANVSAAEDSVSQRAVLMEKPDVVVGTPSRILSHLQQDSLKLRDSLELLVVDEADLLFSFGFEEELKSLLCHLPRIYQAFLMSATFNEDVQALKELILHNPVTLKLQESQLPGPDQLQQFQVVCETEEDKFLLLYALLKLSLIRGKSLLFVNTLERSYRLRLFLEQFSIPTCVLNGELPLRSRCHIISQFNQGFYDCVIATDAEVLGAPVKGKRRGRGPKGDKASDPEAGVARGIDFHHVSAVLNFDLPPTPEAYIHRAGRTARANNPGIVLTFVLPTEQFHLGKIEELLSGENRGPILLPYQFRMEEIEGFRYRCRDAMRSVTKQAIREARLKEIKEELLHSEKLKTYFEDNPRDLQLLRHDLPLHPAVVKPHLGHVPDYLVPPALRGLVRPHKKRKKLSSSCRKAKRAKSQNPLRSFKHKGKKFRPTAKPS
# UniProt O00571: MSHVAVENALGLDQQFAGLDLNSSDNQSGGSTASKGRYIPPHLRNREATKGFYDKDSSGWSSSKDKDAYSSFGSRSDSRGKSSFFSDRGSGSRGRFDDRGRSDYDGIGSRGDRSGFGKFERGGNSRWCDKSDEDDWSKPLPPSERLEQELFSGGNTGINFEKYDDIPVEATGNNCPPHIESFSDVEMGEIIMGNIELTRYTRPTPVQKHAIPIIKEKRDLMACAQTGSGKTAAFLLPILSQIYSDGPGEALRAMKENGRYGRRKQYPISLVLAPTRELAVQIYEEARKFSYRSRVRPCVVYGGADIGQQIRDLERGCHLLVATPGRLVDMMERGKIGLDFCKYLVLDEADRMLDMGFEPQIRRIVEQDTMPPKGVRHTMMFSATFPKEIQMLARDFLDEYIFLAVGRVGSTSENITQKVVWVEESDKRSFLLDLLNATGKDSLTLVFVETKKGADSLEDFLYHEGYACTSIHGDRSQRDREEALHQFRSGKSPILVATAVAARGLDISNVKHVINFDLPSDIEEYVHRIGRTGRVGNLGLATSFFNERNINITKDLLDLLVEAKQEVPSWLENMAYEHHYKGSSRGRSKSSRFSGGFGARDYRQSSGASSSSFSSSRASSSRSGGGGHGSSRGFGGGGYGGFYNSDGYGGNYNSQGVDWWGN
# UniProt Q8TDD1, whole entry, looked up: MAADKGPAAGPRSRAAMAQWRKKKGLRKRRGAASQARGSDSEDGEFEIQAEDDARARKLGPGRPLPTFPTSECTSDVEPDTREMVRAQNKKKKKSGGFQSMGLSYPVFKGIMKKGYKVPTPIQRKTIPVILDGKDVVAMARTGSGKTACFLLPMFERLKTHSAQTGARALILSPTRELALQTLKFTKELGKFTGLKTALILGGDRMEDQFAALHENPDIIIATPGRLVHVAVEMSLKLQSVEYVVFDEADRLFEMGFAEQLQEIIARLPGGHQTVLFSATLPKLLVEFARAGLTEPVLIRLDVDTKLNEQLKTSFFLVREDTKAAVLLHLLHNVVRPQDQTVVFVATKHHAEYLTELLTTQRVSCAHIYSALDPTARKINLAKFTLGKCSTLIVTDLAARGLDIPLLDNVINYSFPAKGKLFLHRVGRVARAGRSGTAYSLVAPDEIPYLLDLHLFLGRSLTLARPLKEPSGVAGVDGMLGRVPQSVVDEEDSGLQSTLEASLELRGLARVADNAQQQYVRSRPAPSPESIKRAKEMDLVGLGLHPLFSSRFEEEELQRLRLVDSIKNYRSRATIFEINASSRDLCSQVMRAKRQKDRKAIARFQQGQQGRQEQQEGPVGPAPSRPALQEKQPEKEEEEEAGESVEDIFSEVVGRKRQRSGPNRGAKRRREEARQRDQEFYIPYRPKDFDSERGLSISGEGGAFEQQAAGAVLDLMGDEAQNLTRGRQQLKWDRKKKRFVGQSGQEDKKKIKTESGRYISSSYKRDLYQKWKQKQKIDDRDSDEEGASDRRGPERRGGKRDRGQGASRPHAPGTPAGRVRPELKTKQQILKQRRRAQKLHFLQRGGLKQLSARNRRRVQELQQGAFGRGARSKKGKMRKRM
# UniProt A2RUS2: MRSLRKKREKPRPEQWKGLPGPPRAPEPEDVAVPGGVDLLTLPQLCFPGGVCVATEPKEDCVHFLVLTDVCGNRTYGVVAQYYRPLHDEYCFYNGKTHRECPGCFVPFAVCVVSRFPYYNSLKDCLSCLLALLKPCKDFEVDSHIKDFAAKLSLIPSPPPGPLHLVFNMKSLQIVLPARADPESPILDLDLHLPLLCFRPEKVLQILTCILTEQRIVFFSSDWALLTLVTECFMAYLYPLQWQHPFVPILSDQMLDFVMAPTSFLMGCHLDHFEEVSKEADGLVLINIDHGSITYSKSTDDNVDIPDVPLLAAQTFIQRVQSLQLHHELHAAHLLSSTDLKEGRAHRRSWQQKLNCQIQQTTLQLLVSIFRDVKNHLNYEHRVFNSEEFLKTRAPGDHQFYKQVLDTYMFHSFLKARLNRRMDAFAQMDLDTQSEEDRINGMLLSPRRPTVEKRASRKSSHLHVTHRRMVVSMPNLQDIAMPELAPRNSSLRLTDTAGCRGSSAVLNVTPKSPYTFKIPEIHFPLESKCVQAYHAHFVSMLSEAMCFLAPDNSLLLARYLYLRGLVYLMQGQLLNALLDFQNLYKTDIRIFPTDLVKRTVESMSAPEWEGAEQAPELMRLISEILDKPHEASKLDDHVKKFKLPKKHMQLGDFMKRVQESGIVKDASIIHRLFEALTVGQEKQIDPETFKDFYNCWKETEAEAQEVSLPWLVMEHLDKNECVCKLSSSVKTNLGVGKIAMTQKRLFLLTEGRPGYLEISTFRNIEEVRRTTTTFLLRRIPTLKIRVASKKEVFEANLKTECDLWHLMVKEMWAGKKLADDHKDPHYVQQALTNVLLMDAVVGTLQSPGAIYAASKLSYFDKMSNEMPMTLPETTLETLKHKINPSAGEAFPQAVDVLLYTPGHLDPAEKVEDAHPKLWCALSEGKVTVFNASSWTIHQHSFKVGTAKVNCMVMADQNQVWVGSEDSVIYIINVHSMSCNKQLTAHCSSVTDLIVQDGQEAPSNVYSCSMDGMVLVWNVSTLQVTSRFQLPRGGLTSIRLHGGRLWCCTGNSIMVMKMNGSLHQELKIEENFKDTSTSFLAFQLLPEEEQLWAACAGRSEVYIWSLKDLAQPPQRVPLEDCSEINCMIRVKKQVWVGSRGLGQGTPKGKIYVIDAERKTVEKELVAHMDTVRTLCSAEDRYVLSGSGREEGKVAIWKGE
# UniProt Q96PD7: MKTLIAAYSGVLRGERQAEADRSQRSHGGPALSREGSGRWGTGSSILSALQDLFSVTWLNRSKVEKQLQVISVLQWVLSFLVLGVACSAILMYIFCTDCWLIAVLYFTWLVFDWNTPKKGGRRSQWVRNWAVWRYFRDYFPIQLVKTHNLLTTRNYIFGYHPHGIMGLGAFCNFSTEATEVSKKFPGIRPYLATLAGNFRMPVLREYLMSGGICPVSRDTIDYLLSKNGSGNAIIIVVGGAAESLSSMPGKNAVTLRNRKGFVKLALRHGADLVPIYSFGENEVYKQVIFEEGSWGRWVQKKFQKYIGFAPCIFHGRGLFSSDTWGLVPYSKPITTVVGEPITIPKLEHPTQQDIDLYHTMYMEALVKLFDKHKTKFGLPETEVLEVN
# UniProt Q5VZ89: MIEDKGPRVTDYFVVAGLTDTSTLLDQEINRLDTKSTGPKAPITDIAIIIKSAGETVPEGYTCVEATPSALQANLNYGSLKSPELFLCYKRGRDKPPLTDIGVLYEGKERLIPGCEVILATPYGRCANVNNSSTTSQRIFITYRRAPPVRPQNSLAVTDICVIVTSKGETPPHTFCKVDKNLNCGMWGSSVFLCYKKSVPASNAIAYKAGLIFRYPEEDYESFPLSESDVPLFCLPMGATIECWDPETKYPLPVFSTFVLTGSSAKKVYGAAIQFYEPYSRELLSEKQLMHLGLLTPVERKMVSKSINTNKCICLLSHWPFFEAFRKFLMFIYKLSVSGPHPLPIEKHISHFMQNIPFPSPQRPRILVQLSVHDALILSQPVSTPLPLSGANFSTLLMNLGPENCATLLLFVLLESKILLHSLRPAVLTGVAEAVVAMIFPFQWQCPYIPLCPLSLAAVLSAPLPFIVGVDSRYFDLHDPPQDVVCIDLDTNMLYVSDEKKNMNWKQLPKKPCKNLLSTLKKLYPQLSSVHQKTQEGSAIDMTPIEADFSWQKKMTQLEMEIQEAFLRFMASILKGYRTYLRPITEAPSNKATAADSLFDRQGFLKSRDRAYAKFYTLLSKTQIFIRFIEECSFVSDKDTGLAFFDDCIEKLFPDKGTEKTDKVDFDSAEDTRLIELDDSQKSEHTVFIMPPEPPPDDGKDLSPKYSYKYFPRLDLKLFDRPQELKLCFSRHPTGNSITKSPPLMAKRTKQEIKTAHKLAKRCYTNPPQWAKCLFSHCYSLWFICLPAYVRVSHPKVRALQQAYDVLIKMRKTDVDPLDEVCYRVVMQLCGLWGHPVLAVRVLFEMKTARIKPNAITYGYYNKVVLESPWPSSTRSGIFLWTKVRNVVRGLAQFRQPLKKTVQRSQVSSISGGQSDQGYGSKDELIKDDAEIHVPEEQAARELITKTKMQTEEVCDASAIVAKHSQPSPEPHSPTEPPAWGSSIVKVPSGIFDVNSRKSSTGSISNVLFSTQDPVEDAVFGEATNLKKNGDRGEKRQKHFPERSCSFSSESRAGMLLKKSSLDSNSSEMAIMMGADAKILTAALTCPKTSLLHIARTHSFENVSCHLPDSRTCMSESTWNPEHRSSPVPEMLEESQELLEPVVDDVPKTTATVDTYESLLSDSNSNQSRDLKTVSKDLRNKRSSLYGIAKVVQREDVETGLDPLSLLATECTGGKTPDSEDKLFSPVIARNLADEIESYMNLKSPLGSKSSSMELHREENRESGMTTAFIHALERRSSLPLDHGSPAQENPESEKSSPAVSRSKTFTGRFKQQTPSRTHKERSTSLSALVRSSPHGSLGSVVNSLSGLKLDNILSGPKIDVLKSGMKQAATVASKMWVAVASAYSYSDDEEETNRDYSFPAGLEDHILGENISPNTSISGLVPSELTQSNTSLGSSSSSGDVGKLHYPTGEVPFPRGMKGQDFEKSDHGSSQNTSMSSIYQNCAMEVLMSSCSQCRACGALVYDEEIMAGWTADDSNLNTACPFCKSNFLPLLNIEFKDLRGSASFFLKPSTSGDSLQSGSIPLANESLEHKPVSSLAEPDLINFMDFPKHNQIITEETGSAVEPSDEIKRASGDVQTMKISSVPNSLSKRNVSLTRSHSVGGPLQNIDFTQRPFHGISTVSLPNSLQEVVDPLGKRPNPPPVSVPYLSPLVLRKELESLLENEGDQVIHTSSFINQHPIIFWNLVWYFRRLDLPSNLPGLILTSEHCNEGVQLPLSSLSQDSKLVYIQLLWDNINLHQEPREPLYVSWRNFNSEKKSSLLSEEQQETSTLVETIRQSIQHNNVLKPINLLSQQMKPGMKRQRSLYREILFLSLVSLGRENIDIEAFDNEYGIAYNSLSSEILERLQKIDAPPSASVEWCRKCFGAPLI
# The other results are listed elsewhere or left out.
# Compound: Cc1cc(ccc1-c1ccccc1)C(=O)N1CCCN(CC1)C(=O)CCl [compound 10]
# Test: probe-labelled cysteine peptide fold change vs DMSO (competition) (log2 fold change); higher = less target engagement (more negative = stronger competition)
# Conditions: THP-1, incubation time: 4 h
# 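Also: competitive profiling in live THP-1 cells: cysteine peptides tagged with an iodoacetamide desthiobiotin (IA-DTB) probe, intensity after compound treatment relative to DMSO-treated cells.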
Target,probe-labelled cysteine peptide fold change (10 µM),probe-labelled cysteine peptide fold change (50 µM)
DDX18_Q9NVP1_329_NLQCLVIDEADRILDVGFEEELK (UniProt Q9NVP1),0.153,-0.181
DDX56_Q9NY93_518_KLSSSCR (UniProt Q9NY93),-0.355,-0.808
DDX3X_O00571_128_WCDKSDEDDWSK (UniProt O00571),-0.303,-1.35
DDX6_P26196_324_VHCLNTLFSR (UniProt P26196),0.111,0.219
DDX54_Q8TDD1_365_VSCAHIYSALDPTAR (UniProt Q8TDD1),0.176,0.229
DENND3_A2RUS2_91_TYGVVAQYYRPLHDEYCFYNGK (UniProt A2RUS2),-0.0563,-0.429
DGAT2_Q96PD7_312_YIGFAPCIFHGR (UniProt Q96PD7),0.0105,0.746
DENND4C_Q5VZ89_1086_ILTAALTCPK (UniProt Q5VZ89),-0.274,-0.803
